# Test results as given in article PMC10253451.
# The chains behind the UniProt entries cited, without tags or fusion partners.
# UniProt P40763: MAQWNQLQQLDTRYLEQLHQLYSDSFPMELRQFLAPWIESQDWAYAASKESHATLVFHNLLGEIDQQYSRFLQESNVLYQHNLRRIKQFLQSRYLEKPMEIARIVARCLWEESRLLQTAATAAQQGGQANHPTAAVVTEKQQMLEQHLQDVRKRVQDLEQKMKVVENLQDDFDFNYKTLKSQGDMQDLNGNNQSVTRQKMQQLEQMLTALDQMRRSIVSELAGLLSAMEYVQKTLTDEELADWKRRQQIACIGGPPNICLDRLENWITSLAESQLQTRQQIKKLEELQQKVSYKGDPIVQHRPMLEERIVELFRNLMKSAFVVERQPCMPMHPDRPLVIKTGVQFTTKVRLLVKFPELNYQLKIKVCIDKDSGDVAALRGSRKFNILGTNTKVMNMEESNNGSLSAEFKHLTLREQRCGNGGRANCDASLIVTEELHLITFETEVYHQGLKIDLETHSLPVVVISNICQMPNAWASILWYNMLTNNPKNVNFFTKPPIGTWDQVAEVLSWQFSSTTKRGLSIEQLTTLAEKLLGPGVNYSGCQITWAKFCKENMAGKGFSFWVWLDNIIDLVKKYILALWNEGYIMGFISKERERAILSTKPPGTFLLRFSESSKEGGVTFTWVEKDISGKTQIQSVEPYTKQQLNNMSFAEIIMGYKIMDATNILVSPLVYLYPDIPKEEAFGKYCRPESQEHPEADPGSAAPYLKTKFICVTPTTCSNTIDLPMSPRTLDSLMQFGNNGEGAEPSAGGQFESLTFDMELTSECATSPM
# UniProt P53350: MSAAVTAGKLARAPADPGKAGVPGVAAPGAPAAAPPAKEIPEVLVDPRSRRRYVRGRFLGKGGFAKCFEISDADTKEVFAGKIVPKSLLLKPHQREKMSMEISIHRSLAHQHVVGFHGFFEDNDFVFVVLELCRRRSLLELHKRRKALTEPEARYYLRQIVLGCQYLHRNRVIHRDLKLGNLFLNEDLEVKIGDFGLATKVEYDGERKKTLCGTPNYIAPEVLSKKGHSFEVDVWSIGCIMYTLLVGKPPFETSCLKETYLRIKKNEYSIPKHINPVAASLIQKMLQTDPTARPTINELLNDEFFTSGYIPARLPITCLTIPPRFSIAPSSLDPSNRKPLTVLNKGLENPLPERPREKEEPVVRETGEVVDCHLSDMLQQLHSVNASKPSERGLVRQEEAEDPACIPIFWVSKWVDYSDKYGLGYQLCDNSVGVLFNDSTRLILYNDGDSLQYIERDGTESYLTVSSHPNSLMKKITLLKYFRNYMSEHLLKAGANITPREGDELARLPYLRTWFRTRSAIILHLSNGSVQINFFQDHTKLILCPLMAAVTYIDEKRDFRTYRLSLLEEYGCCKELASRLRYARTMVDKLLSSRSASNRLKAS
# UniProt P06748: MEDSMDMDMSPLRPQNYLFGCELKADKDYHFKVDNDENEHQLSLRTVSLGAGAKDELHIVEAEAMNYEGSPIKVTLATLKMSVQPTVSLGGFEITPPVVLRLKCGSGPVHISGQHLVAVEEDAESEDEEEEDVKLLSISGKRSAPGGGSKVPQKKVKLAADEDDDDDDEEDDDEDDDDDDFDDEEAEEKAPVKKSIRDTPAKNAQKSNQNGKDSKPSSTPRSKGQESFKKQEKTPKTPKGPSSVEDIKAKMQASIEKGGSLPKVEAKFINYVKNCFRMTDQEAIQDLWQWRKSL
# These are yes or no findings as the source states them, for the method shown. Binding seen in cells or lysates may run through a third protein. Some binding calls cover weakened binding; strength is not graded here. Sequences can lack the tags named with a protein.
# T1: 3× FLAG–TROAP fusion (trophinin-associated protein) (human) (UniProt Q12815)
# T1 sequence: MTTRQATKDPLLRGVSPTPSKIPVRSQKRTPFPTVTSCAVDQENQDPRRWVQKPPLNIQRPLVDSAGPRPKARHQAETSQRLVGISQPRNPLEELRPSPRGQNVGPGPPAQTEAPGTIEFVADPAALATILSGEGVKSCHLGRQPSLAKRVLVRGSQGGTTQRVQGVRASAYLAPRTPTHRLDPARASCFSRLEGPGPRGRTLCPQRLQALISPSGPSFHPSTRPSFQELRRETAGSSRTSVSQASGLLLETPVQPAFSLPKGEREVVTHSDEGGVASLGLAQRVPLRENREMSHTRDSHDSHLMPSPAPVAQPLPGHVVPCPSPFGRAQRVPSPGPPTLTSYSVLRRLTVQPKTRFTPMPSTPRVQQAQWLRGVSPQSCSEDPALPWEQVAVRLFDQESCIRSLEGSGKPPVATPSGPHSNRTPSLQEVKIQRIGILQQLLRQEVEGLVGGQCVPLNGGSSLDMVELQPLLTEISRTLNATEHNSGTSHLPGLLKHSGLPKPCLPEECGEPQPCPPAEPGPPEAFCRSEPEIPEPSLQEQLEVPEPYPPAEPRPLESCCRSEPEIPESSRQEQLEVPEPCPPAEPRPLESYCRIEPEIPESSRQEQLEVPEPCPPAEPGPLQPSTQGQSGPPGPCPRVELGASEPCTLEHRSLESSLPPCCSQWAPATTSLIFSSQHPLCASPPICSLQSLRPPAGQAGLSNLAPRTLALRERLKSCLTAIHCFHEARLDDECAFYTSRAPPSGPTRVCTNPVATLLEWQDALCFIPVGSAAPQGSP
# Biological target: T1, 3× FLAG–TROAP fusion (trophinin-associated protein) (human)
# Test: co-IP; 786-O cells infected with 3× FLAG–TROAP lentivirus (OE) or control; FLAG beads (Sigma); Western blot of the precipitate
row,Molecule,binding
1,activated p-STAT3 protein (phosphorylated signal transducer and activator of transcription 3) (from UniProt P40763 1-770),binds
2,p-PLK1 (from UniProt P53350 1-603),no binding
3,p-NPM1 (from UniProt P06748 1-294),no binding
4,"p-RB1 (protein, UniProt P06400 1-928, phosphorylated (p-RB1); site not given) MPPKTPRKTAATAAAAAAEPPAPPPPPPPEEDPEQDSGPEDLPLVRLEFEETEEPDFTALCQKLKIPDHVRERAWLTWEKVSSVDGVLGGYIQKKKELWGICIFIAAVDLDEMSFTFTELQKNIEISVHKFFNLLKEIDTSTKVDNAMSRLLKKYDVLFALFSKLERTCELIYLTQPSSSISTEINSALVLKVSWITFLLAKGEVLQMEDDLVISFQLMLCVLDYFIKLSPPMLLKEPYKTAVIPINGSPRTPRRGQNRSARIAKQLENDTRIIEVLCKEHECNIDEVKNVYFKNFIPFMNSLGLVTSNGLPEVENLSKRYEEIYLKNKDLDARLFLDHDKTLQTDSIDSFETQRTPRKSNLDEEVNVIPPHTPVRTVMNTIQQLMMILNSASDQPSENLISYFNNCTVNPKESILKRVKDIGYIFKEKFAKAVGQGCVEIGSQRYKLGVRLYYRVMESMLKSEEERLSIQNFSKLLNDNIFHMSLLACALEVVMATYSRSTSQNLDSGTDLSFPWILNVLNLKAFDFYKVIESFIKAEGNLTREMIKHLERCEHRIMESLAWLSDSPLFDLIKQSKDREGPTDHLESACPLNLPLQNNHTAADMYLSPVRSPKKKGSTTRVNSTANAETQATSAFQTQKPLKSTSLSLFYKKVYRLAYLRLNTLCERLLSEHPELEHIIWTLFQHTLQNEYELMRDRHLDQIMMCSMYGICKVKNIDLKFKIIVTAYKDLPHAVQETFKRVLIKEEEYDSIIVFYNSVFMQRLKTNILQYASTRPPTLSPIPHIPRSPYKFPSSPLRIPGGNIYISPLKSPYKISEGLPTPTKMTPRSRILVSIGESFGTSEKFQKINQMVCNSDRVLKRSAEGSNPPKPLKKLRFDIEGSDEADGSKHLPGESKFQQKLAEMTSTRTRMQKQKMNDSMDTSNKEEK",no binding
